Assay [1] has as its target recombinant human α1 (I) chain from tobacco plants transformed with construct pBIOC706 (fragment BDEFG), complete chain comprising the C-propeptide, band at approximately 140 KDa (human) (UniProt P02452). Nature of the assay: chain-to-chain association of the same chain; SDS-PAGE with or without DTT, immunotransfer.
Assay [2] concerns the target recombinant human α1 (I) chain from tobacco plants transformed with construct pBIOC706 (fragment BDEFG), band migrating at the level of the control α1 (I) chain, C-propeptide cleaved (human) (UniProt P02452). Briefly: chain-to-chain association (triple coil); trypsin digestion, 6% acrylamide gel.
The target is the same in assay [3]. Nature of the assay: chain-to-chain association (triple coil); electron microscopy after shade rotation.
Assay [4] has the same target. Nature of the assay: chain-to-chain association (triple coil); resistance to trypsin at 25° C., gel electrophoresis.
Assay [5] addresses recombinant human α1 (I) chain from tobacco plants transformed with construct pBIOC707 (fragment BCDEFG), band at approximately 140 KDa comprising the N-propeptide, C-propeptide cleaved (human) (UniProt P02452). Described as above.
The target in assay [6] is recombinant human α1 (I) chain from tobacco plants transformed with construct pBIOC707 (fragment BCDEFG), complete chain comprising the N- and C-propeptides, band at approximately 160 KDa (human) (UniProt P02452). Briefly: chain-to-chain association of the same chain; SDS-PAGE with or without DTT, immunotransfer.

Protein sequences, listed by entry. Tags and fused reporters are not part of them. Lines headed by an entry give the natural chain unless they say otherwise; changes in a name come on top.
UniProt P02452: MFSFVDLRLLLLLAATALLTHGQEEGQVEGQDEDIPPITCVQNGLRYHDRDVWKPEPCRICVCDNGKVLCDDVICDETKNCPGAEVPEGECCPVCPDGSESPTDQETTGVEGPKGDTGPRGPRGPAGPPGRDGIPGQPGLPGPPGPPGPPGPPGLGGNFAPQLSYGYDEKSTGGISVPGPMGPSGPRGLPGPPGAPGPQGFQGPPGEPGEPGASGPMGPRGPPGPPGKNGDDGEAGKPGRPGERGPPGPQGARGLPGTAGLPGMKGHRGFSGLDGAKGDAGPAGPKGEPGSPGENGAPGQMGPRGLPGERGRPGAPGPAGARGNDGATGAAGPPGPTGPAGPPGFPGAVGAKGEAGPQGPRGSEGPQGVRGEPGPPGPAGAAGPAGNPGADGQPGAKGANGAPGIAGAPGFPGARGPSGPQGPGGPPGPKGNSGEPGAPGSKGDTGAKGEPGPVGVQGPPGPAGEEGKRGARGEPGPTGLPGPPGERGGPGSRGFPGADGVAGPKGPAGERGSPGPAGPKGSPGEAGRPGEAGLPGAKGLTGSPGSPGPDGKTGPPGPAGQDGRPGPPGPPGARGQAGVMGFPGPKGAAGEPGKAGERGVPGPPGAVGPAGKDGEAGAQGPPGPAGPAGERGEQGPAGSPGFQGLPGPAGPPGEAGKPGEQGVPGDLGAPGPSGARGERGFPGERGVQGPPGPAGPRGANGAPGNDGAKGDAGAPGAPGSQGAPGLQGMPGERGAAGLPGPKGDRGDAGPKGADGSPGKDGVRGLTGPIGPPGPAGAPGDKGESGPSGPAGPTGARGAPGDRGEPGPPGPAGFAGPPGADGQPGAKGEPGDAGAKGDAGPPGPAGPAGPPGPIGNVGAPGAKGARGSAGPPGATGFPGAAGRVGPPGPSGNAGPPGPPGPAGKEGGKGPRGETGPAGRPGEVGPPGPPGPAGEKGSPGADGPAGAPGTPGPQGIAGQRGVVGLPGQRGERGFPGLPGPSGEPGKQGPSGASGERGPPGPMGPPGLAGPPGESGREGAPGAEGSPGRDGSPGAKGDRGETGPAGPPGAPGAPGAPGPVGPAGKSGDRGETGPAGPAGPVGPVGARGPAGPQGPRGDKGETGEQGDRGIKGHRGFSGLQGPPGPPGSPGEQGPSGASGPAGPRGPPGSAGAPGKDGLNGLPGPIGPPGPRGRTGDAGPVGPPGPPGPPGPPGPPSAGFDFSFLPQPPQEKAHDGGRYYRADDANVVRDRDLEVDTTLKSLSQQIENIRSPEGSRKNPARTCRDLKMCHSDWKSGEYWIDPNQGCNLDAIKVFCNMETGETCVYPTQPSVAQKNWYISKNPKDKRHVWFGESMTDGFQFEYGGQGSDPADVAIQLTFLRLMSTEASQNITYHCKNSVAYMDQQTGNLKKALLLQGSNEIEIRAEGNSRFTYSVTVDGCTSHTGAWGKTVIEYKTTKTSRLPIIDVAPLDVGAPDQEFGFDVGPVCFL

This note sets out measurements from patent US6617431.

No constants are given. Whether binding was seen depends on the method and setting. Some entries that bind do so weakly or less than the wild type.

For “recombinant human α1 (I) chain from tobacco plants transformed with construct pBIOC706 (fragment BDEFG), complete chain comprising the C-propeptide, band at approximately 140 KDa (from UniProt P02452 160-1464)”, in assay [1], the binding entry is “binds”.

On to “recombinant human α1 (I) chain from tobacco plants transformed with construct pBIOC706 (fragment BDEFG), band migrating at the level of the control α1 (I) chain, C-propeptide cleaved (from UniProt P02452 160-1192)”, for which the binding entry in assay [2], in assay [3] and in assay [4] was “binds” in each case.

On to “recombinant human α1 (I) chain from tobacco plants transformed with construct pBIOC707 (fragment BCDEFG), band at approximately 140 KDa comprising the N-propeptide, C-propeptide cleaved (from UniProt P02452 27-1192)”, for which the binding entry in assay [5] was “binds”.

On to “recombinant human α1 (I) chain from tobacco plants transformed with construct pBIOC707 (fragment BCDEFG), complete chain comprising the N- and C-propeptides, band at approximately 160 KDa (from UniProt P02452 27-1464)”, for which the binding entry in assay [6] is listed as “binds”.
